Experimental data published in patent US20190192484A1 (UNIVERSITY OF CHICAGO, published 2019).

Biological target: T1, Desmoplakin (endogenous, WT fibroblasts) (mouse, UniProt E9Q557 1-2883, limits assumed)
T1 construct: Positive control partner of vimentin in the proximity ligation assay
Assay: proximity ligation assay in WT fibroblasts, positive control (FIG. 8F)
Text: The interactions between Tubulin and MAP1β (FIG. 8E) or interaction between Desmoplakin and Vimentin (FIG. 8F) were detected with corresponding antibodies as indicated and used as positive controls.

B1: Vimentin (endogenous, WT fibroblasts) (other, mouse, UniProt P20152 2-466, looked up)
chain: STRSVSSSSYRRMFGGSGTSSRPSSNRSYVTTSTRTYSLGSALRPSTSRSLYSSSPGGAYVTRSSAVRLRSSVPGVRLLQDSVDFSLADAINTEFKNTRTNEKVELQELNDRFANYIDKVRFLEQQNKILLAELEQLKGQGKSRLGDLYEEEMRELRRQVDQLTNDKARVEVERDNLAEDIMRLREKLQEEMLQREEAESTLQSFRQDVDNASLARLDLERKVESLQEEIAFLKKLHDEEIQELQAQIQEQHVQIDVDVSKPDLTAALRDVRQQYESVAAKNLQEAEEWYKSKFADLSEAANRNNDALRQAKQESNEYRRQVQSLTCEVDALKGTNESLERQMREMEENFALEAANYQDTIGRLQDEIQNMKEEMARHLREYQDLLNVKMALDIEIATYRKLLEGEESRISLPLPTFSSLNLRETNLESLPLVDTHSKRTLLIKTVETRDGQVINETSQHHDDLE
  binding result: binds
